A short description of this test: qHTS Assay to Find Inhibitors of Chronic Active B-Cell Receptor Signaling. Particulars: ABC-DLBCL IkBa-CBG/CBR reporter, luminescence ratio (green luciferase fused to IkBa over red control in TMD8 lymphoma cells), 4 h. The method, boiled down: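 TMD8 ABC-DLBCL cells carrying doxycycline-inducible green luciferase fused to IkappaBalpha plus unfused red luciferase were exposed to compounds (up to 46 uM) for 4 hrs at 37C. Activity came from the overlap-corrected green/red luminescence ratio.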

The mark [1] stands for this setting: measured here: CBR red luminescence, cell number.

Some of the results follow. Further columns of the screen follow, without active or inactive calls. The list favours compounds with an active or inconclusive main result. Words in brackets tell the shape of the fitted curve; partial curves, single points and poor fits give uncertain potencies.

In the case of `CC(=O)Nc1ccc(S(=O)(=O)Nc2c(C)n(C)n(-c3ccccc3)c2=O)cc1`, the AC50 under setting [1] is 15.8 µM [rising, partial curve, poor fit].

Regarding `CCOC(=O)C(=O)Nc1nnc(CCc2ccccc2)s1`, the AC50 under setting [1] was 1.03 µM [falling, partial curve, poor fit]. Same read-out and setting: the same measure for `Cn1cc(C(=O)c2ccc(F)cc2)cc1-c1nc2ccccc2n1C`: 1.84 µM [rising, partial curve, poor fit]; for `CN(C)c1ccc(C(=O)OCC(=O)Nc2cccc(S(=O)(=O)N3CCCC3)c2)cc1`: 1.84 µM [rising, partial curve, poor fit]. In the case of `C[C@H](CO)N1C[C@H](C)[C@@H](CN(C)Cc2ccc(Cl)c(Cl)c2)Oc2c(NS(=O)(=O)c3ccc(F)cc3)cccc2C1=O`, under setting [1], the AC50 was 32.6 µM [falling, single point]. Still for that read-out and setting: the value for `CC(C)(C)c1ccc(-c2csc(NNC3=NCCCCC3)n2)cc1` was 3.26 µM [rising, single point]; that for `Cc1cccc(C(=O)N(Cc2nc3ccccc3c(=O)[nH]2)C2CCCCC2)c1` was 20 µM [falling, single point]. For the molecule `COc1ccc(-c2cc(=O)oc3cc(OC(=O)C4CCCCC4)c(Cl)cc23)cc1`, under “measured here: IkBa-CBG green luminescence”, the AC50 was 4.11 µM [rising, full curve].

On to `COc1ccccc1Cn1nnc2c(=O)[nH]c(C3CCN(C(=O)c4ccccc4Cl)CC3)nc21`, for which the AC50 under setting [1] was 28.2 µM [falling, single point].

In the case of `CCOC(=O)c1c(NC(=O)COC(=O)c2cnc(C)cn2)sc(C(=O)N(C)C)c1C`, the concentration at half-maximal activity (AC50) under setting [1] is 20.6 µM [rising, partial curve, poor fit]. `CCOC(=O)CSc1n[nH]c(NC(=O)c2cccc(C)c2)n1`: the AC50 under setting [1] is 7.08 µM [falling, full curve, poor fit]. The same measure, in the same setting: the value for `O=c1[nH]c(=O)n([C@H]2C[C@H](O)[C@@H](CO)O2)cc1C(F)(F)F` was 0.206 µM [rising, full curve, poor fit]; that for `O=c1cc(N2CCc3ccccc32)[nH]c(=O)n1-c1ccccc1` was 11.6 µM [falling, partial curve, poor fit]; that for `Cc1cc(Cl)ccc1OC(C)C(=O)NCCc1ccc2c(c1)OCCO2` (configuration not stated) was 23.1 µM [falling, single point]. Same read-out and setting: the same measure for `CCCCCC1=CCC/C1=N\NC(=O)c1ccc2c(c1)OCO2`: 25.1 µM [falling, single point]. Still for that read-out and setting: the value for `Cc1cc(C)c2nc(N3CCN(C(=O)c4ccco4)CC3)sc2c1` was 3.26 µM [rising, full curve, poor fit]. On to `CN(C(=O)c1cccc(COc2ccc(Cl)cc2Cl)c1)c1ccccc1`, for which, under setting [1], the concentration at half-maximal activity (AC50) is 0.82 µM [rising, full curve].

The record behind these values is PubChem BioAssay AID493014 (National Center for Advancing Translational Sciences (NCATS), 2011).
